# Where a name gives a salt, the structure may show the parent alone. The list shows a part of the results. Hit calls seldom repeat between salt and free forms of one compound.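 Kinases were expressed as nanoluciferase fusions in K562 cells and luminescence was read every 4 h between 2 and 18 h as percent of control, DMSO set to 100% and a positive control to 0%. A time point counts as decreased when the signal drops significantly (2 sigma). The hit call is the authors' own, does not follow from the count of time points alone, and its rule is not shown.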
# By UniProt entry, the sequences of proteins in these tests, tags left out. Where a name states a change or a piece, a line headed by the entry shows the natural chain unless it says otherwise.
# UniProt Q9Y616: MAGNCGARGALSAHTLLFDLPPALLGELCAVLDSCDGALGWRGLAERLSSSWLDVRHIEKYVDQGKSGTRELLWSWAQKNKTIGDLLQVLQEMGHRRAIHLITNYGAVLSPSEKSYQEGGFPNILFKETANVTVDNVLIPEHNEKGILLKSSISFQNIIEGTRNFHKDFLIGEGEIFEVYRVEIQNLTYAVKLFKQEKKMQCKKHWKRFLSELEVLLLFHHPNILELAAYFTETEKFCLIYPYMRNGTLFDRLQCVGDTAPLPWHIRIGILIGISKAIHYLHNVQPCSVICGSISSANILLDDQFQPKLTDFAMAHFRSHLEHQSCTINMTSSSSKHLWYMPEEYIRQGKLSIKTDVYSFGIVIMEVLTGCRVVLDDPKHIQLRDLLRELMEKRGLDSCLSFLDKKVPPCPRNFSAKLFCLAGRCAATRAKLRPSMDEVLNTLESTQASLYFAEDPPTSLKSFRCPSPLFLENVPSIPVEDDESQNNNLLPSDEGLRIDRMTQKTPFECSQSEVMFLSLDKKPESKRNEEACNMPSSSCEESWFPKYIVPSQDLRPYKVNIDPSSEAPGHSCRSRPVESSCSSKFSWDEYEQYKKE
# UniProt P23458: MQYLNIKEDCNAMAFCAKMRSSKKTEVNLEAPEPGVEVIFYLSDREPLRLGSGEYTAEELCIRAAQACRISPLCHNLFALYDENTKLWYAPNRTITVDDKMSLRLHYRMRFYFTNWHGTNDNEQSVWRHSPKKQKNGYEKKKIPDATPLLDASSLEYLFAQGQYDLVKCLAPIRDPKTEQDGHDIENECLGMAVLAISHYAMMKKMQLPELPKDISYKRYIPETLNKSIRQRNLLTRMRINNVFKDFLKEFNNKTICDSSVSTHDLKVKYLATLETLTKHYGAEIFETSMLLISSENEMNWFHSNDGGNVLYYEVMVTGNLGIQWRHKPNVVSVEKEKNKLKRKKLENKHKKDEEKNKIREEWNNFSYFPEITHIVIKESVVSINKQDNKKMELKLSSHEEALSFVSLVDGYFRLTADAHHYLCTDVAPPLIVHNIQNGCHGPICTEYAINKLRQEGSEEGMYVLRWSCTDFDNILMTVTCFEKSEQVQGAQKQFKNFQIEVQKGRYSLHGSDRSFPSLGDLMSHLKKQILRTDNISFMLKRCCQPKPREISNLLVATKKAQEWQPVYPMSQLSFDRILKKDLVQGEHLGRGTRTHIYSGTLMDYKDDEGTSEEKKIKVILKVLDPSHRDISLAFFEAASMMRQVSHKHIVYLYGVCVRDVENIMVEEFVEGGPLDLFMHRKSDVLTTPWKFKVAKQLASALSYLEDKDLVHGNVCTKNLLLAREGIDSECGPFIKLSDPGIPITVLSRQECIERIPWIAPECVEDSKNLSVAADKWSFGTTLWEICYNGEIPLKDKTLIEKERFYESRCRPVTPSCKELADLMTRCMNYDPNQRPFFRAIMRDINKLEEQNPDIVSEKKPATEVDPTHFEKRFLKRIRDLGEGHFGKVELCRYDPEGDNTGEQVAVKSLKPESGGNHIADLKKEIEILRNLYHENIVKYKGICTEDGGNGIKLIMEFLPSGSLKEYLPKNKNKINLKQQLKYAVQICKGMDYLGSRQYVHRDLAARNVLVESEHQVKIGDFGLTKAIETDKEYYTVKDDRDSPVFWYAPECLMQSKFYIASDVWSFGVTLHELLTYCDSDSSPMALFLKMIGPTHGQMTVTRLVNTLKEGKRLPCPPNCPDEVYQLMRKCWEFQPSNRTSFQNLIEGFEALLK
# UniProt P06239: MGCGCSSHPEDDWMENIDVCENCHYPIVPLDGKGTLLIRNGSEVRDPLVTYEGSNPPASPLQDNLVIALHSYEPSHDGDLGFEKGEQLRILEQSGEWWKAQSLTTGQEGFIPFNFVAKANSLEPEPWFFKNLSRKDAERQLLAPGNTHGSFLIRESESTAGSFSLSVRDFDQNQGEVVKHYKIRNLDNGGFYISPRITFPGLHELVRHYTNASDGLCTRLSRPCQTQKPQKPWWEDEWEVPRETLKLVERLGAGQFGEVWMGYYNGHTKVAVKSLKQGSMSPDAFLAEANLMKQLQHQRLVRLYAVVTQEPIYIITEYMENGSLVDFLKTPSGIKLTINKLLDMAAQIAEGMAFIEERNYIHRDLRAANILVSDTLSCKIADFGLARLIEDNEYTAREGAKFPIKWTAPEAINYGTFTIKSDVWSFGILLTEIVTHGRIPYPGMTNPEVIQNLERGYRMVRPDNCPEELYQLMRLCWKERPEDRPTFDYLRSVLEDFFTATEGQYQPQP
# UniProt P53667: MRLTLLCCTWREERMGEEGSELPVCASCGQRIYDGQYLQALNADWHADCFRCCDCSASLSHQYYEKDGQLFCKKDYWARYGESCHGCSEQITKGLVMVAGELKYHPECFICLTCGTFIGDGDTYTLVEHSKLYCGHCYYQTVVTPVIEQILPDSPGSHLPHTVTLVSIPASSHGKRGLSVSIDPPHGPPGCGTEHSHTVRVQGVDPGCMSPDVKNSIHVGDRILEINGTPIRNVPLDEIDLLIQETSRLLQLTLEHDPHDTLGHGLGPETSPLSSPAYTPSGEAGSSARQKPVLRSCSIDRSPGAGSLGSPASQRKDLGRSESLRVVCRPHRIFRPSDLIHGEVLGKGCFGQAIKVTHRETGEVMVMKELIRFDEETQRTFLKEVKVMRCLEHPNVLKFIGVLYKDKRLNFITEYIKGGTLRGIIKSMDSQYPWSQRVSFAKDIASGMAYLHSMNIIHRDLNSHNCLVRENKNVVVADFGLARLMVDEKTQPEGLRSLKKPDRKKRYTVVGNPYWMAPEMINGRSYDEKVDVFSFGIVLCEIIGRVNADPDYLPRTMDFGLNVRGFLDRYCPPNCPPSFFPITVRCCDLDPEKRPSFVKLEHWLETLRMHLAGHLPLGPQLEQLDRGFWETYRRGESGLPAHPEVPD
# UniProt P53671: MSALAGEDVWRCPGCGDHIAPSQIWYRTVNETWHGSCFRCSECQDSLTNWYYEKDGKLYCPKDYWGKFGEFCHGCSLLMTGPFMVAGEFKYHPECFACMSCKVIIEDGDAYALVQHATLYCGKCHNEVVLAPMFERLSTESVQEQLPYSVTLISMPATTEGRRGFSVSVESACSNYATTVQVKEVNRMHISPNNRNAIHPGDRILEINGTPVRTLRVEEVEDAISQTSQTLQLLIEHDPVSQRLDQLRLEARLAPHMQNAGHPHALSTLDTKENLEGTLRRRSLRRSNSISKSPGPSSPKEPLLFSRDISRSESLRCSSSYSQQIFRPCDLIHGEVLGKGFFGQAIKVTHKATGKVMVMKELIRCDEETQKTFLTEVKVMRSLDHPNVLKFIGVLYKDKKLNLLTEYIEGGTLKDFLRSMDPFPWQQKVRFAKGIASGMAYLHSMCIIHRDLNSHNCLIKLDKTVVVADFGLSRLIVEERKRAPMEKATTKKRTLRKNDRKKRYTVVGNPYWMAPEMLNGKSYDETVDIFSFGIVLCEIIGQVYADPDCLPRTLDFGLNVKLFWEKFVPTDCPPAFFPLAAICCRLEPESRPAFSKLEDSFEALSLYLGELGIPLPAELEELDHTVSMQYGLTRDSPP
# UniProt Q8IWU2: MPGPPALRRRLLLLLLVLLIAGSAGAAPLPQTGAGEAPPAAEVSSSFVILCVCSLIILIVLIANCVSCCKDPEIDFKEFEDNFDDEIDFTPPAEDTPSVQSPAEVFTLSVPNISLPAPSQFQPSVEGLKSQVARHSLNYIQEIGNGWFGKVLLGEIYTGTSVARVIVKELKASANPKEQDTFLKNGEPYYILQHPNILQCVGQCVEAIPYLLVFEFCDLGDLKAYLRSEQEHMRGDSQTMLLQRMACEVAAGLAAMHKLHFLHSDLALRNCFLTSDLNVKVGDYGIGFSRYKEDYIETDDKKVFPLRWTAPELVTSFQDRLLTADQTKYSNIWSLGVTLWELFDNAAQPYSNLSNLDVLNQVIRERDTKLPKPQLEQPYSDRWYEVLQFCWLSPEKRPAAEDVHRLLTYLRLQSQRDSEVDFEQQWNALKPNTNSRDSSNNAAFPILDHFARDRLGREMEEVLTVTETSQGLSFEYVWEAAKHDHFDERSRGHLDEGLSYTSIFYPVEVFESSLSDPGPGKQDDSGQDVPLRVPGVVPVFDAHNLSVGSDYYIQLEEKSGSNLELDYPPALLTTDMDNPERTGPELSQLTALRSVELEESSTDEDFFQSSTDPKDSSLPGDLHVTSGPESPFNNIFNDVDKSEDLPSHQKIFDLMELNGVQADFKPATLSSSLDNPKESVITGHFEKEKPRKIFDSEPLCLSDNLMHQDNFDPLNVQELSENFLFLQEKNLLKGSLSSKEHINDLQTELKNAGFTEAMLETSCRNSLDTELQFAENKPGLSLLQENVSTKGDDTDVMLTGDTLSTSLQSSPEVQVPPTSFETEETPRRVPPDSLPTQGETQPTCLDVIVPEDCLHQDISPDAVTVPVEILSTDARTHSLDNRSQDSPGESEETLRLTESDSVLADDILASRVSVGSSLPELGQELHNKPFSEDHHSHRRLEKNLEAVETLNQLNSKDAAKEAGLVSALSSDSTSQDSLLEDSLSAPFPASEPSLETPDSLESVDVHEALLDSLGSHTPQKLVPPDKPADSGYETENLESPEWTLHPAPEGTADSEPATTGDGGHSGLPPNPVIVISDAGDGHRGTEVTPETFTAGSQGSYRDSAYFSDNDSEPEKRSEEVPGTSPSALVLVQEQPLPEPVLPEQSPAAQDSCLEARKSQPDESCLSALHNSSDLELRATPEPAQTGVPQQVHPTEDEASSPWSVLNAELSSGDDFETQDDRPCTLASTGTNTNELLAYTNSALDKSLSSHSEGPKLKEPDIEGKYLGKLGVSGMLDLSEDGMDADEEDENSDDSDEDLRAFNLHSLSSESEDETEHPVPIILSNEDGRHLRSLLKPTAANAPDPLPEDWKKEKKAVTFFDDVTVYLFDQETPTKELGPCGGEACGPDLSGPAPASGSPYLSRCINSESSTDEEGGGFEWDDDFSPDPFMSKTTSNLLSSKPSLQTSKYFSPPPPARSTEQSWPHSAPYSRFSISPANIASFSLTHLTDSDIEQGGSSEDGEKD
# UniProt P07948: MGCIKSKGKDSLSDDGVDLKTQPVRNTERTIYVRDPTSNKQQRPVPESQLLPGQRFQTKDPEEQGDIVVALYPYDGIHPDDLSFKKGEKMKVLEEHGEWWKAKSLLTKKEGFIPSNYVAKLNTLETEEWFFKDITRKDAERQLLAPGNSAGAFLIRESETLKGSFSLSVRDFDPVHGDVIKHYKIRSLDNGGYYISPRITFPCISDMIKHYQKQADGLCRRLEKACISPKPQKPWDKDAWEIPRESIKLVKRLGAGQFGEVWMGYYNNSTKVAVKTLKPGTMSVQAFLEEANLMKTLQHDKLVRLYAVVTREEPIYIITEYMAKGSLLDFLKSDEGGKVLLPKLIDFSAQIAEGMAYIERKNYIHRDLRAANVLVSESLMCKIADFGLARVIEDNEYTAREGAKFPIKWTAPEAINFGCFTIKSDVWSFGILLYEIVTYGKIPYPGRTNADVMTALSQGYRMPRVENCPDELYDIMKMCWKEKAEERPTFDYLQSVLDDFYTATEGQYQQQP
# UniProt Q12851: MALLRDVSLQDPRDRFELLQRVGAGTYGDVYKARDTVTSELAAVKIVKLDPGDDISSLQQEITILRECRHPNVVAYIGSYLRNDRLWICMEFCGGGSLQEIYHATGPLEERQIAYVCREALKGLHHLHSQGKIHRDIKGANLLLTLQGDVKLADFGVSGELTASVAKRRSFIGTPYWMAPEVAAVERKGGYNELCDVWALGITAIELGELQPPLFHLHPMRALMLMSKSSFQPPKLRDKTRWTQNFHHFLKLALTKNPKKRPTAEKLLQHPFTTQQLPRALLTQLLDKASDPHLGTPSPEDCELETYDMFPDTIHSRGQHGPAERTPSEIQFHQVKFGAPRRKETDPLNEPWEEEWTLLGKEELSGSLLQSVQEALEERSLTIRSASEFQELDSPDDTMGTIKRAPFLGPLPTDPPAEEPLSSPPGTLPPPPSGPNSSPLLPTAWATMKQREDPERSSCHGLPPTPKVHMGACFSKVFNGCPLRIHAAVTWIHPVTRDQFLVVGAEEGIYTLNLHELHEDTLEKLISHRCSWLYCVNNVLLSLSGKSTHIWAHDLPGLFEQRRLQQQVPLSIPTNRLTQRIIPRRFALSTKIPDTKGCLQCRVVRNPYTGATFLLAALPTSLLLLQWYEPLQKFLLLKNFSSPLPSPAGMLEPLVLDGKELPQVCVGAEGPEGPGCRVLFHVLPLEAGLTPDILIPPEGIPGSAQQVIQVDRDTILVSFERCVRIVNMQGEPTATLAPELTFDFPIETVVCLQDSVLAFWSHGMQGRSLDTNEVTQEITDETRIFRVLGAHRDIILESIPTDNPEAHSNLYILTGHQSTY
# Experiments:
# Assay in all cases: kinase-Nluc reporter destabilization hit call (1 = scored as downregulated) (binary); higher = compound decreases kinase abundance
# Settings in all cases: K562; 2-18 h
# IRAK3 = IRAK3 (UniProt Q9Y616)
# JAK1 = JAK1 (UniProt P23458)
# LCK = LCK (UniProt P06239)
# LIMK1 = LIMK1 (UniProt P53667)
# LIMK2 = LIMK2 (UniProt P53671)
# LMTK2 = LMTK2 (UniProt Q8IWU2)
# LYN = LYN (UniProt P07948)
# MAP2K1 = MAP2K1 (UniProt Q02750)
# MAP2K2 = MAP2K2 (UniProt P36507)
# MAP4K2 = MAP4K2 (UniProt Q12851)
Structure (SMILES),kinase-Nluc reporter destabilization hit call (IRAK3),kinase-Nluc reporter destabilization hit call (JAK1),kinase-Nluc reporter destabilization hit call (LCK),kinase-Nluc reporter destabilization hit call (LIMK1),kinase-Nluc reporter destabilization hit call (LIMK2),kinase-Nluc reporter destabilization hit call (LMTK2),kinase-Nluc reporter destabilization hit call (LYN),kinase-Nluc reporter destabilization hit call (MAP2K1),kinase-Nluc reporter destabilization hit call (MAP2K2),kinase-Nluc reporter destabilization hit call (MAP4K2)
COc1c(O)cc2oc(-c3ccc(O)cc3)cc(=O)c2c1O [Hispidulin] (10 µM),inactive: 0,inactive: 0,inactive: 0,inactive: 0,inactive: 0,inactive: 0,inactive: 0,inactive: 0,inactive: 0,inactive: 0
Clc1ccc(C(c2ccc(Cl)cc2)[n+]2ccn(CC(OCc3ccc(Cl)cc3Cl)c3ccc(Cl)cc3Cl)c2)cc1 (stereo not given) [Calmidazolium chloride] (2.5 µM),inactive: 0,inactive: 0,inactive: 0,inactive: 0,inactive: 0,inactive: 0,inactive: 0,inactive: 0,inactive: 0,inactive: 0
NCC1CCC(CNc2nc(NCc3ccccc3OC(F)(F)F)ncc2[N+](=O)[O-])CC1 (stereo not given) [PKC-theta inhibitor] (10 µM),inactive: 0,inactive: 0,inactive: 0,active: 1,inactive: 0,inactive: 0,inactive: 0,inactive: 0,inactive: 0,inactive: 0
Nc1ncnc2c1nc(Br)n2[C@@H]1O[C@@H]2COP(=O)(O)O[C@H]2[C@H]1O [8-Bromo-cAMP sodium salt] (10 µM),inactive: 0,inactive: 0,inactive: 0,inactive: 0,inactive: 0,inactive: 0,inactive: 0,inactive: 0,inactive: 0,inactive: 0
c1ccc(Cn2c(-c3ccc(OC[C@H](C4CCNCC4)n4c(-c5ccccc5)nc5ccccc54)cc3)nc3ccccc32)cc1 [Deltarasin] (2.5 µM),inactive: 0,active: 1,inactive: 0,inactive: 0,inactive: 0,inactive: 0,inactive: 0,inactive: 0,inactive: 0,inactive: 0
Cn1c2cc([S+](C)[O-])sc2c2cnn(Cc3cccc(N)c3)c(=O)c21 (stereo not given) (2.5 µM),inactive: 0,inactive: 0,inactive: 0,inactive: 0,inactive: 0,inactive: 0,inactive: 0,inactive: 0,inactive: 0,inactive: 0
COc1cc2nccc(Oc3ccc(NC(=O)c4cn(C(C)C)c(=O)n(-c5ccc(F)cc5)c4=O)cc3F)c2cc1OC (0.5 µM),inactive: 0,inactive: 0,inactive: 0,inactive: 0,inactive: 0,inactive: 0,inactive: 0,inactive: 0,inactive: 0,inactive: 0
Cc1cc(Nc2cc(N3CCN(C)CC3)nc(Nc3ccc([N+](=O)[O-])cc3)n2)n[nH]1 (2.5 µM),inactive: 0,inactive: 0,inactive: 0,inactive: 0,inactive: 0,inactive: 0,inactive: 0,inactive: 0,inactive: 0,inactive: 0
CN(C)c1ccc(-c2nc3ncc(Cl)c(N4CCN(CC(=O)Nc5nccs5)CC4)c3[nH]2)cc1 (2 µM),inactive: 0,inactive: 0,inactive: 0,inactive: 0,inactive: 0,inactive: 0,inactive: 0,inactive: 0,inactive: 0,inactive: 0
CNC(=O)c1cc2c(Oc3ccc(NC(=O)C4(C(=O)Nc5ccc(F)cc5)CC4)cc3)ccnc2cc1OC (2.5 µM),inactive: 0,inactive: 0,inactive: 0,inactive: 0,inactive: 0,inactive: 0,inactive: 0,inactive: 0,inactive: 0,inactive: 0
Cc1c(C)c(NCC(=O)N(C)C2CCN(Cc3ccc(C(N)=O)cc3)CC2)c(C)c(C)c1N (10 µM),inactive: 0,inactive: 0,inactive: 0,inactive: 0,inactive: 0,inactive: 0,inactive: 0,inactive: 0,inactive: 0,inactive: 0
N[C@@H]1CCCN(c2c(/C=C3\SC(=O)NC3=O)cccc2-c2ccccc2)C1 (10 µM),inactive: 0,inactive: 0,inactive: 0,inactive: 0,inactive: 0,inactive: 0,inactive: 0,inactive: 0,inactive: 0,inactive: 0
Nc1[nH]nc2nc(-c3ccc(NS(=O)(=O)c4cc(Cl)ccc4Cl)cc3)cnc12 (10 µM),inactive: 0,inactive: 0,inactive: 0,inactive: 0,inactive: 0,inactive: 0,inactive: 0,inactive: 0,inactive: 0,inactive: 0
CO[C@H]1C[C@@H]2CC[C@@H](C)[C@@](O)(O2)C(=O)C(=O)N2CCCC[C@H]2C(=O)O[C@H]([C@H](C)C[C@@H]2CC[C@@H](OC(=O)C(C)(CO)CO)[C@H](OC)C2)CC(=O)[C@H](C)/C=C(\C)[C@@H](O)[C@@H](OC)C(=O)[C@H](C)C[C@H](C)/C=C/C=C/C=C/1C [Temsirolimus] (2.5 µM),inactive: 0,inactive: 0,inactive: 0,inactive: 0,inactive: 0,inactive: 0,inactive: 0,inactive: 0,inactive: 0,inactive: 0
COc1cc(-c2cc(OP(=O)(O)O)cc(-c3cc(OC)c(OC)c(OC)c3)c2)cc(OC)c1OC [Stafia-1] (10 µM),inactive: 0,inactive: 0,inactive: 0,inactive: 0,inactive: 0,inactive: 0,inactive: 0,inactive: 0,inactive: 0,inactive: 0
Cc1cc(CSc2ccccc2C(=O)NCCNc2ccc(C(F)(F)F)cc2[N+](=O)[O-])on1 (10 µM),inactive: 0,inactive: 0,inactive: 0,inactive: 0,inactive: 0,inactive: 0,inactive: 0,inactive: 0,inactive: 0,inactive: 0
CN1CCC(CNc2ccc3ncc(-c4cccc(OC(F)(F)F)c4)n3n2)CC1 (2.5 µM),inactive: 0,inactive: 0,inactive: 0,inactive: 0,inactive: 0,inactive: 0,inactive: 0,inactive: 0,inactive: 0,inactive: 0
NC(=O)c1ccc(N(C(N)=O)c2c(F)cccc2F)nc1-c1ccc(F)cc1F (10 µM),inactive: 0,inactive: 0,inactive: 0,inactive: 0,inactive: 0,inactive: 0,inactive: 0,inactive: 0,inactive: 0,inactive: 0
CCNC(=O)C#Cc1ccc2c(C(=Nc3ccc(CN(C)C)cc3)c3ccccc3)c(O)[nH]c2c1 (2.5 µM),inactive: 0,inactive: 0,inactive: 0,inactive: 0,inactive: 0,inactive: 0,inactive: 0,inactive: 0,inactive: 0,inactive: 0
COc1cc2cc(Oc3ccc4ccc(=O)oc4c3)c(=O)oc2cc1O [Daphnoretin] (10 µM),inactive: 0,inactive: 0,inactive: 0,inactive: 0,inactive: 0,inactive: 0,inactive: 0,inactive: 0,inactive: 0,inactive: 0
N#Cc1ccc(-c2cnc3ccc(-c4ccc(C(=O)N5CCOCC5)cc4)cn23)cc1 (10 µM),inactive: 0,inactive: 0,inactive: 0,inactive: 0,inactive: 0,inactive: 0,inactive: 0,inactive: 0,inactive: 0,inactive: 0
COc1cc(F)ccc1-c1ncnc(Nc2cccc(C[S@](C)(=N)=O)c2)n1 [Atuveciclib] (2.5 µM),inactive: 0,inactive: 0,inactive: 0,inactive: 0,inactive: 0,inactive: 0,inactive: 0,inactive: 0,inactive: 0,inactive: 0
c1nc2c(NC3CCCCC3)nc(Nc3ccc(N4CCOCC4)cc3)nc2[nH]1 [Reversine] (10 µM),inactive: 0,inactive: 0,inactive: 0,inactive: 0,inactive: 0,inactive: 0,inactive: 0,inactive: 0,inactive: 0,inactive: 0
CCCCCc1ccc(/C=C/[C@H](O)[C@@H](CO)NC)cc1 [SK1-I (hydrochloride)] (10 µM),inactive: 0,inactive: 0,inactive: 0,inactive: 0,inactive: 0,inactive: 0,inactive: 0,inactive: 0,inactive: 0,inactive: 0
O=C(NCCO)c1cc(C(=O)NCCO)cc(C(=O)NCCO)c1 (10 µM),inactive: 0,inactive: 0,inactive: 0,inactive: 0,inactive: 0,inactive: 0,inactive: 0,inactive: 0,inactive: 0,inactive: 0
COc1ccc(-c2cc(=O)c3c(OC)cc(OC)c(OC)c3o2)cc1 [6-Demethoxytangeretin] (10 µM),inactive: 0,inactive: 0,inactive: 0,inactive: 0,inactive: 0,inactive: 0,inactive: 0,inactive: 0,inactive: 0,inactive: 0

# 2 of the compounds above, with tabs.
Structure (SMILES)	kinase-Nluc reporter destabilization hit call (IRAK3)	kinase-Nluc reporter destabilization hit call (JAK1)	kinase-Nluc reporter destabilization hit call (LCK)	kinase-Nluc reporter destabilization hit call (LIMK1)	kinase-Nluc reporter destabilization hit call (LIMK2)	kinase-Nluc reporter destabilization hit call (LMTK2)	kinase-Nluc reporter destabilization hit call (LYN)	kinase-Nluc reporter destabilization hit call (MAP2K1)	kinase-Nluc reporter destabilization hit call (MAP2K2)	kinase-Nluc reporter destabilization hit call (MAP4K2)
CCNC(=O)C#Cc1ccc2c(C(=Nc3ccc(CN(C)C)cc3)c3ccccc3)c(O)[nH]c2c1 (2.5 µM)	inactive: 0	inactive: 0	inactive: 0	inactive: 0	inactive: 0	inactive: 0	inactive: 0	inactive: 0	inactive: 0	inactive: 0
COc1cc2cc(Oc3ccc4ccc(=O)oc4c3)c(=O)oc2cc1O [Daphnoretin] (10 µM)	inactive: 0	inactive: 0	inactive: 0	inactive: 0	inactive: 0	inactive: 0	inactive: 0	inactive: 0	inactive: 0	inactive: 0

# — the supplement of paper PMC12823440, “Inhibitors supercharge kinase turnover through native proteolytic circuits” (Nature, 2025)
